PubChem BioAssay AID1259254 – NCATS, 2017
The whole screen tested about 59,000 reagents; this is an unselected part. About 1,550 of them (2.6%) were called active. 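G2 share is only a proxy for re-replication; each gene was hit by three separate siRNAs, and active genes were retested.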 The raw values are shown without normalisation. The numbers tell different reagents against one gene apart. Not stated in the record: the amount of reagent.

Purpose: 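Genome-wide screen for genes that prevent DNA re-replication in cancer cells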 (primary screen)
System: human HCT116 colorectal cancer cells
Reagents: single siRNA against human genes
Timing: 3 days
Detection: 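Imaged Hoechst DNA stain sorts each cell into a cycle phase by DNA amount; per plate, G2 fraction set to 0% for non-targeting and 100% for GMNN siRNA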
Scale: G2 robust z-score and G2 cells, % of GMNN control: higher = more G2 cells, more excess DNA replication; raw share of cells in G2: higher = larger share of cells with G2 DNA content
Rule for the call: 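An siRNA counts as active if its G2 robust z-score lies at least 5 MADs above the screen median; here such calls match roughly 38% of GMNN control or more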

no.	target	siRNA no.	G2 robust z-score	G2 cells, % of GMNN control	raw share of cells in G2 (%)	outcome
1	SIX5 (GeneID 147912)	1	-0.315	0.753	3.35	inactive
2	SIX5 (GeneID 147912)	2	-0.517	-0.669	2.93	inactive
3	SIX5 (GeneID 147912)	3	-0.619	-1.39	3.04	inactive
4	ZNF507 (GeneID 22847)	1	0.845	8.91	6.49	inactive
5	ZNF507 (GeneID 22847)	2	-0.323	0.691	6.3	inactive
6	ZNF507 (GeneID 22847)	3	-0.143	1.96	4.16	inactive
7	XPO4 (GeneID 64328)	1	-0.548	-0.887	5.28	inactive
8	XPO4 (GeneID 64328)	2	1.14	11	8.23	inactive
9	XPO4 (GeneID 64328)	3	0.335	5.33	6.16	inactive
10	ZNF765 (GeneID 91661)	1	0.955	9.69	6.42	inactive
11	ZNF765 (GeneID 91661)	2	-0.305	0.824	3.45	inactive
12	ZNF765 (GeneID 91661)	3	-0.426	-0.0331	3.51	inactive
13	EMID1 (GeneID 129080)	1	-0.627	-1.45	2.59	inactive
14	EMID1 (GeneID 129080)	2	-0.354	0.474	3.33	inactive
15	EMID1 (GeneID 129080)	3	0.207	4.42	5.08	inactive
16	CCL20 (GeneID 6364)	1	0.222	4.53	5.46	inactive
17	CCL20 (GeneID 6364)	2	-0.0469	2.64	6.57	inactive
18	CCL20 (GeneID 6364)	3	1.97	16.8	10.3	inactive
19	SNCG (GeneID 6623)	1	1.34	12.4	9.85	inactive
20	SNCG (GeneID 6623)	2	-0.0487	2.63	5.45	inactive
21	SNCG (GeneID 6623)	3	-1.15	-5.15	2.25	inactive
22	LOC150519 (retired record) (GeneID 150519)	1	0.678	7.74	6.42	inactive
23	LOC150519 (retired record) (GeneID 150519)	2	0.414	5.88	4.73	inactive
24	LOC150519 (retired record) (GeneID 150519)	3	-0.065	2.51	3.94	inactive
25	FGF14-AS2 (GeneID 283481)	1	-0.735	-2.2	2.84	inactive
26	FGF14-AS2 (GeneID 283481)	2	-0.483	-0.431	2.88	inactive
27	FGF14-AS2 (GeneID 283481)	3	-0.0508	2.61	4.06	inactive
28	SEC14L3 (GeneID 266629)	1	-0.561	-0.976	4.29	inactive
29	SEC14L3 (GeneID 266629)	2	-1.15	-5.13	3.51	inactive
30	SEC14L3 (GeneID 266629)	3	0.974	9.82	8.29	inactive
31	SLC28A2 (GeneID 9153)	1	-0.509	-0.614	4.49	inactive
32	SLC28A2 (GeneID 9153)	2	0.75	8.24	8.16	inactive
33	SLC28A2 (GeneID 9153)	3	-1.19	-5.38	2.09	inactive
34	BCL2L13 (GeneID 23786)	1	-1.29	-6.14	1.98	inactive
35	BCL2L13 (GeneID 23786)	2	4.93	37.6	23.2	inactive
36	BCL2L13 (GeneID 23786)	3	-0.288	0.942	4.5	inactive
37	RPL23AP37 (GeneID 130773)	1	2.71	22	10.1	inactive
38	RPL23AP37 (GeneID 130773)	2	0.911	9.38	5.98	inactive
39	RPL23AP37 (GeneID 130773)	3	0.0402	3.25	5.4	inactive
40	SLC7A10 (GeneID 56301)	1	1.61	14.3	9.55	inactive
41	SLC7A10 (GeneID 56301)	2	-0.258	1.15	4.81	inactive
42	SLC7A10 (GeneID 56301)	3	-0.97	-3.86	4.74	inactive
43	SNX11 (GeneID 29916)	1	-0.495	-0.513	3.47	inactive
44	SNX11 (GeneID 29916)	2	0.283	4.96	4.54	inactive
45	SNX11 (GeneID 29916)	3	-1.38	-6.75	2.86	inactive
46	SLC38A9 (GeneID 153129)	1	0.337	5.34	5.62	inactive
47	SLC38A9 (GeneID 153129)	2	-0.841	-2.95	2	inactive
48	SLC38A9 (GeneID 153129)	3	-0.5	-0.549	2.88	inactive
49	TMEM229B (GeneID 161145)	1	-0.0717	2.46	4.49	inactive
50	TMEM229B (GeneID 161145)	2	1.85	16	8.31	inactive
51	TMEM229B (GeneID 161145)	3	-0.142	1.97	3.38	inactive
52	IFIT2 (GeneID 3433)	1	0.146	3.99	6.5	inactive
53	IFIT2 (GeneID 3433)	2	2.47	20.4	13.4	inactive
54	IFIT2 (GeneID 3433)	3	-0.341	0.571	4.41	inactive
55	MGAT2 (GeneID 4247)	1	0.278	4.93	7.42	inactive
56	MGAT2 (GeneID 4247)	2	1.87	16.1	11.6	inactive
57	MGAT2 (GeneID 4247)	3	5.34	40.5	16.6	active
58	FYN (GeneID 2534)	1	-0.976	-3.9	4.32	inactive
59	FYN (GeneID 2534)	2	-1.66	-8.68	2.48	inactive
60	FYN (GeneID 2534)	3	0.328	5.28	5.88	inactive
61	MAGI3 (GeneID 260425)	1	-1.17	-5.28	3.94	inactive
62	MAGI3 (GeneID 260425)	2	0.0393	3.24	6.37	inactive
63	MAGI3 (GeneID 260425)	3	-0.0209	2.82	4.59	inactive
64	SPATA31D5P (GeneID 347127)	1	-0.251	1.2	4.4	inactive
65	SPATA31D5P (GeneID 347127)	2	-0.529	-0.756	2.93	inactive
66	SPATA31D5P (GeneID 347127)	3	-0.66	-1.67	3.52	inactive
67	THAP9 (GeneID 79725)	1	-0.702	-1.97	3.63	inactive
68	THAP9 (GeneID 79725)	2	-0.444	-0.159	4.23	inactive
69	THAP9 (GeneID 79725)	3	0.586	7.09	4.32	inactive

Reagents listed so far called active, once more:
target	siRNA no.	G2 robust z-score	G2 cells, % of GMNN control	raw share of cells in G2 (%)	outcome
MGAT2 (GeneID 4247)	3	5.34	40.5	16.6	active
